{
  "source": "patent US20200157220A1",
  "biological_target": "T1, cynomolgus monkey CTLA4-hFc (cynomolgus monkey; human) (UniProt G7PL88)",
  "T1 sequence": "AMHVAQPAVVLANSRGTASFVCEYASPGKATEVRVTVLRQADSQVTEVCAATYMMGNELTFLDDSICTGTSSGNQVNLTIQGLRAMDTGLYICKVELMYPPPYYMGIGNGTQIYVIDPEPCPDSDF",
  "assay": "ProteOn XPR36 (SPR)",
  "note": "Results are given in words; binding and its absence hold for the method and conditions named. Some entries that bind do so weakly or less than the wild type. Tags and fused reporters may be left off the sequences shown.",
  "data": [
    {"binder": "Monovalent F023700906 Nanobody 11F01 (L11V,A14P,Q45R,A74S,K83R,V89L,M96P,Q108L)-FLAG3-HIS6 (VHH) VHH: EVQLVESGGGVVQPGGSLRLSCAASGGTFSFYGMGWFRQAPGKEREFVADIRTSAGRTYYADSVKGRFTISRDNSKNTVYLQMNSLRPEDTALYYCAAEPSGISGWDYWGQGTLVTVSS", "values": [
      {"measurement": "binding", "value": "binds"}
    ]}
  ]
}
